Assay results taken from patent publication US20100068199A1.
Substitutions are numbered along the chain they refer to. No constants are given. Whether binding was seen depends on the method and setting. Some results given as binding are weak or reduced against the parent protein; the word gives no strength. Sequences can lack the tags named with a protein. One block for each binder: values may come before it.

Protein sequences, listed by entry. Tags and fused reporters are not part of them. Lines headed by an entry give the natural chain unless they say otherwise; changes in a name come on top. Chains listed by the source or under a name are the forms on record and can include a tag or linker.
recombinant mouse PCSK9 (Q80W65, form named): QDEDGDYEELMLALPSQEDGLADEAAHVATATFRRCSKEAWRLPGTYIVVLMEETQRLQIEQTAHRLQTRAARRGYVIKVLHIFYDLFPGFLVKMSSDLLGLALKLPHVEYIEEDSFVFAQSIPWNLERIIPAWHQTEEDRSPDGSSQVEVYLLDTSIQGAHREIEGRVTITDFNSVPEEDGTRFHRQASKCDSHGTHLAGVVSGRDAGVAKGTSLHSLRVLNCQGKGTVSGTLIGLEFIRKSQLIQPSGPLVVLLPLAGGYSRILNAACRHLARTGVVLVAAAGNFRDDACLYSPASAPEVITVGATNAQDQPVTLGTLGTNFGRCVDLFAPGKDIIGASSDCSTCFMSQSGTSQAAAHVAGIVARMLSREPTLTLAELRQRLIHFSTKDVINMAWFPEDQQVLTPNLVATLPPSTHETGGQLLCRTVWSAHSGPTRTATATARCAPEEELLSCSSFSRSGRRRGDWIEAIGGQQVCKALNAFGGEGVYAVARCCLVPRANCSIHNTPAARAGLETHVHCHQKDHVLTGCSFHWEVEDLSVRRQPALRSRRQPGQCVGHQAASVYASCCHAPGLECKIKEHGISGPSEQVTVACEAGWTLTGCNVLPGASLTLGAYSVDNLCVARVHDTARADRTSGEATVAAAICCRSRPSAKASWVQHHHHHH

Assays:
[1] = biological target: recombinant mouse PCSK9 (mouse) (UniProt Q80W65); assay: ELISA, blocking: 0.31 nM biotinylated mouse PCSK9 binding to immobilized LDLR extracellular domain, pH 5.3
[2] = biological target: recombinant mouse PCSK9 (mouse) (UniProt Q80W65); assay: ELISA, blocking: 0.31nM biotinylated mouse PCSK9 binding to immobilized LDLR extracellular domain, pH 7.5
[3] = biological target: recombinant mouse PCSK9 (mouse) (UniProt Q80W65); assay: SPR (Biacore 3000)
[4] = biological target: recombinant mouse PCSK9 (mouse) (UniProt Q80W65); assay: ELISA, blocking: biotinylated mouse PCSK9 (0.8nM) binding to immobilized human LDLR extracellular domain, pH7.5

- binding [1]: binds
- binding [2]: binds
B1: L1L3 humanized anti-PCSK9 monoclonal antibody (antibody, V domains shown)
VH: QVQLVQSGAEVKKPGASVKVSCKASGYTFTSYYMHWVRQAPGQGLEWMGEISPFGGRTNYNEKFKSRVTMTRDTSTSTVYMELSSLRSEDTAVYYCARERPLYASDLWGQGTTVTVSS
VL: DIQMTQSPSSLSASVGDRVTITCRASQGISSALAWYQQKPGKAPKLLIYSASYRYTGVPSRFSGSGSGTDFTFTISSLQPEDIATYYCQQRYSLWRTFGQGTKLEIKR

- binding [3]: binds
- binding [4]: binds
B2: anti-PCSK9 antagonist monoclonal antibody 4A5 (antibody, V domains shown)
VH: EVQLQQSGPELVKPGASVKISCKASGYTFTDYYMNWVKQSHGKSLEWIGDINPNNGGTTYNQKFKGKATLTVDKSYSTAYMELRSLTSEDSAVYYCARWLLFAYWGQGTLVTVSA
VL: DIVMTQSQKFMSTSVGDRVSVTCKASQNVGTNVAWYQQKPGQSPKALIYSASYRYSGVPDRFTGSGSGTDFTLTISNVLSEDLAEYFCQQFYSYPYTFGGGTKLEIKR

- binding [1]: binds
- binding [3]: binds
- binding [4]: binds
- binding [2]: binds
B3: anti-PCSK9 antagonist monoclonal antibody 5A10 (antibody, V domains shown)
VH: QVQLQQPGAELVKPGASVKLSCKASGYTFTSYWMHWVKQRPGQGLEWIGEINPSNGRTNYNEKFKSKATLTVDKSSSTAYMQLSSLTSEDSAVYYCARERPLYAMDYWGQGTSVTVSS
VL: DIVMTQSHKFMSTSVGDRVSITCKASQDVSTAVAWYQQKPGQSPKLLIYSASYRYTGVPDRFTGSGSGTDFTFTISSVQAEDLAVYYCQQRYSTPRTFGGGTKLEIKR

- binding [3]: binds
- binding [4]: binds
B4: anti-PCSK9 antagonist monoclonal antibody 7D4 (antibody, V domains shown)
VH: EVKLVESEGGLVQPGSSMKLSCTASGFTFSDYYMAWVRQVPEKGLEWVANINYDGSNTSYLDSLKSRFIISRDNAKNILYLQMSSLKSEDTATYYCAREKFAAMDYWGQGTSVTVSS
VL: B3 VL with V15F, T31N, V33L, Q42H, Y49F, R91H, R96W

- binding [3]: binds
- binding [4]: binds
B5: anti-PCSK9 antagonist monoclonal antibody 6F6 (antibody, V domains shown)
VH: EVQLQQSGPELVKPGASVKISCKASGYTFTDYYMNWVKQSHGKSLEWIGDINPNNGGTSYNQKFKGKATLTVDKSSSTAYMELRSLTSEDSAVYYCAGGGIYYRYDRNYFDYWGQGTTLTVSS
VL: DIQMTQTTSSLSASLGDRVTISCSASQGISNYLNWYQQKPDGTVKLLIYYTSSLHSGVPSRFSGSGSGTDYSLTISNLEPEDIATYYCQQYSKLPFTFGSGTKLEIK
